# According to publication PMC9025633:
# By UniProt entry, the sequences of proteins in these tests, tags left out. Residues count along the entry.
# UniProt O75581, residues 20-1613: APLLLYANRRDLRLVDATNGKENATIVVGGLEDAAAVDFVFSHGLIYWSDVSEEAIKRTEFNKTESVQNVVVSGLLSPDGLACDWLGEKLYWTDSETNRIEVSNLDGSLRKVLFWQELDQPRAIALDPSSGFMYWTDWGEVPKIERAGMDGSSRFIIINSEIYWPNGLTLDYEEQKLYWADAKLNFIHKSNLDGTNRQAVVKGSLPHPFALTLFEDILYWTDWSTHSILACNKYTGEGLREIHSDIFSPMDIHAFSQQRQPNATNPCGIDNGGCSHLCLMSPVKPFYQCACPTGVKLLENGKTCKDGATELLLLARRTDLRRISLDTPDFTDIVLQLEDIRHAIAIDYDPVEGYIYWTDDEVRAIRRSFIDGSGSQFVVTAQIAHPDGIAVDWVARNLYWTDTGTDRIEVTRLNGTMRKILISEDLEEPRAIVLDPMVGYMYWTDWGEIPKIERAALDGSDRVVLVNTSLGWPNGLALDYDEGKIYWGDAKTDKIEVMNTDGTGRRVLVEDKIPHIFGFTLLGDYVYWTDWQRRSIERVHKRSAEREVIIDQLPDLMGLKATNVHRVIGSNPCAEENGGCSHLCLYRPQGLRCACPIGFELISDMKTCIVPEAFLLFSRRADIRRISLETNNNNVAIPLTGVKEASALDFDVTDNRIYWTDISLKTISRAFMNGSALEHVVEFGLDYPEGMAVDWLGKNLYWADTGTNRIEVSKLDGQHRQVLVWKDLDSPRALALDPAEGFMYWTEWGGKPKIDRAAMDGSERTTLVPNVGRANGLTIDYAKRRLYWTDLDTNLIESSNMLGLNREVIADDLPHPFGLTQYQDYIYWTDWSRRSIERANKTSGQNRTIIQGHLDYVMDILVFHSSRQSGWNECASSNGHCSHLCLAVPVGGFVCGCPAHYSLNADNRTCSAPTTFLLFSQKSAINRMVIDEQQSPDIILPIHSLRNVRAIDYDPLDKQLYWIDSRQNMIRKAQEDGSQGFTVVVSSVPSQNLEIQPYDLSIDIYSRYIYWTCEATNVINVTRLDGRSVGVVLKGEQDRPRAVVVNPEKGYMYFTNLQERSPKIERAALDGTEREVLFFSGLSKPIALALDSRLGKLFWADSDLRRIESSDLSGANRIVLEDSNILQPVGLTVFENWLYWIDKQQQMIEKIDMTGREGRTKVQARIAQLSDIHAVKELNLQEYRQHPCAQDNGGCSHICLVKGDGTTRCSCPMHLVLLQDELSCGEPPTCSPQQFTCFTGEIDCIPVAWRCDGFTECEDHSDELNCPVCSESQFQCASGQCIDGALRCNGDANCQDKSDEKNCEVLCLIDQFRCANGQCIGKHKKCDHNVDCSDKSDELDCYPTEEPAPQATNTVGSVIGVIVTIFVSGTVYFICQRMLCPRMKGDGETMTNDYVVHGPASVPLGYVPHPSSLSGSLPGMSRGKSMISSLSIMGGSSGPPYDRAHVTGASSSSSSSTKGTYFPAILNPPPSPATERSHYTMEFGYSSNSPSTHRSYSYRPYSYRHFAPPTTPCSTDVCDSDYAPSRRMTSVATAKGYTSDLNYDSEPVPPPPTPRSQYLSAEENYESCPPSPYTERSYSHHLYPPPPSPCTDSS
# UniProt P02749, residues 20-345: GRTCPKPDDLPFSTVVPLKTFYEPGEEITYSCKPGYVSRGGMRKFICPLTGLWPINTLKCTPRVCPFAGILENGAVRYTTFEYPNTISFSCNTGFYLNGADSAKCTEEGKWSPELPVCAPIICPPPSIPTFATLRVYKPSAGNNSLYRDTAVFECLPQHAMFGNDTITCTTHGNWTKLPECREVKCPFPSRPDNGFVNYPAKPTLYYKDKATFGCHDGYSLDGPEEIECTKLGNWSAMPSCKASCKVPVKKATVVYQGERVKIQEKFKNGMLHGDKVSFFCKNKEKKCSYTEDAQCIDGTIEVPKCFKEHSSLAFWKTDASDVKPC
# UniProt P55085, residues 37-397: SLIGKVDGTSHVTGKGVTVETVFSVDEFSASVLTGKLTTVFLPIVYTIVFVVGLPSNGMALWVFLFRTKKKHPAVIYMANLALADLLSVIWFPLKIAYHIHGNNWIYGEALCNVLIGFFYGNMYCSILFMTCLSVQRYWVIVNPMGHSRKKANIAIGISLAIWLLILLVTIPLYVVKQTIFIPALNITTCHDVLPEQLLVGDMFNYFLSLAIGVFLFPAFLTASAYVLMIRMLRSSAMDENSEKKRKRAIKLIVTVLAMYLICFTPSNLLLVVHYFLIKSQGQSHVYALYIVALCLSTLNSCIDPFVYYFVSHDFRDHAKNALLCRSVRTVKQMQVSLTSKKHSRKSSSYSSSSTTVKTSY
# These are yes or no findings as the source states them, for the method shown. In cells and extracts the contact can be indirect. Some binding calls cover weakened binding; strength is not graded here.
# Legend:
# [1] = target: Low-density lipoprotein receptor-related protein 6 (LRP6) (human (endogenous in HUVEC)) (UniProt O75581); experiment: co-IP; pooled Triton X-100-insoluble fractions (4-5-6) of HUVEC, untreated or treated with affinity-purified anti-β2-GPI antibodies for 45 min at 37 °C; immunoprecipitated with goat anti-LRP6 Abs and protein G-acrylic beads; western blot with anti-PAR-2 mAb or anti-β2-GPI Ab; irrelevant polyclonal IgG as negative control
# [2] = target: Low-density lipoprotein receptor-related protein 6 (LRP6) (human (endogenous in HUVEC)) (UniProt O75581); experiment: co-IP; pooled Triton X-100-insoluble fractions (4-5-6) of unstimulated (untreated) HUVEC; immunoprecipitated with goat anti-LRP6 Abs and protein G-acrylic beads; western blot with anti-β2-GPI Ab
binding [1],binding [2],Substance
binds,binds weakly,β2-glycoprotein-I (β2-GPI) (from UniProt P02749 20-345)
binds,,protease-activated receptor-2 (PAR-2) (from UniProt P55085 37-397)
